Source: PubChem BioAssay AID1224828 (NIAID, 2016)
The deposit covers about 17,000 reagents; this is an unselected part. In the full data, 762 (4.5%) got an active call. 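Active calls include both raised and lowered p65 entry, mostly lowered; wells with fewer than 50 cells lack a z-score.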 The raw values are shown without normalisation. Unmarked entries are inactive.

Purpose: 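Knock-downs that increase or decrease LPS-induced p65 nuclear translocation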 (primary screen)
System: mouse RAW264.7 G9 macrophage reporter cells (GFP-p65, Tnf promoter-mCherry)
Reagents: siRNA pool against mouse genes, 100 nM
Duration: 2 days siRNA transfection, then 40 min LPS before fixation
Challenge: LPS (Salmonella minnesota R595) at 10 ng/ml
Detection: 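Microscopy ratio of nuclear to perinuclear-ring GFP-p65 signal, scaled to the plate median; gene score is the average of two replicate robust z-scores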
Reading the numbers: p65 translocation robust z-score: higher = more nuclear NF-kappaB p65 after LPS than the plate median; nuclear/cytoplasmic p65 ratio: higher = more nuclear NF-kappaB p65
Hit rule: 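Called active when z exceeds 3.3 or falls under -1.56 (median of Tlr4 controls), giving activity score of at least 50; no calls for control wells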
Meaning of the calls: active = hit (p65 shift raised or lowered); inactive = no clear change

target | PubChem SID | p65 translocation robust z-score | nuclear/cytoplasmic p65 ratio, rep 1 | nuclear/cytoplasmic p65 ratio, rep 2 | low cell count flag
Brd8 (bromodomain containing 8) | SID315475597 | -0.58 | 1.54 | 1.51 | enough cells to score
Sobp (sine oculis binding protein) | SID315476800 | – | 1.17 | 1.4 | fewer than 50 cells per well; well left out of scoring
Tspan17 (tetraspanin 17) | SID315474925 | -0.49 | 1.39 | 1.32 | enough cells to score
Crispld2 (cysteine-rich secretory protein LCCL domain containing 2) | SID315475640 | 1.01 | 1.51 | 1.41 | enough cells to score
Psmb1 (proteasome (prosome, macropain) subunit, beta type 1) | SID315468738 | – | 1.43 | 0.914 | fewer than 50 cells per well; well left out of scoring
Dus4l (dihydrouridine synthase 4 like) | SID315474378 | -1.22 | 1.2 | 1.22 | enough cells to score
Prr15 (proline rich 15) | SID315475532 | – | 1.78 | 1.24 | fewer than 50 cells per well; well left out of scoring
Sfxn3 (sideroflexin 3) | SID315476079 | – | 1.48 | 1.09 | fewer than 50 cells per well; well left out of scoring
Or9a4 (olfactory receptor family 9 subfamily A member 4) | SID315480066 | – | 1.26 | 0.915 | fewer than 50 cells per well; well left out of scoring
Prl3b1 (prolactin family 3, subfamily b, member 1) | SID315468558 | 0.4 | 1.57 | 1.92 | enough cells to score
Prkch (protein kinase C, eta) | SID315468543 | -0.67 | 1.55 | 1.32 | enough cells to score
Npc1l1 (NPC1 like intracellular cholesterol transporter 1) | SID315479357 | 0 | 1.78 | 1.47 | enough cells to score
Ngp (neutrophilic granule protein) | SID315468171 | -0.56 | 1.7 | 1.5 | enough cells to score
Cfi (complement component factor i) | SID315465943 | -1.24 | 1.16 | 1.35 | enough cells to score
Hoxd8 (homeobox D8) | SID315467281 | -0.58 | 1.33 | 1.32 | enough cells to score
Fut9 (fucosyltransferase 9) | SID315466766 | 0.41 | 1.64 | 1.53 | enough cells to score
Ercc1 | SID315466550 | -0.39 | 1.4 | 1.33 | enough cells to score
Cdyl (chromodomain protein, Y chromosome-like) | SID315465927 | 1.15 | 1.58 | 1.57 | enough cells to score
Thsd1 (thrombospondin, type I, domain 1) | SID315471417 | 0.7 | 1.45 | 1.24 | enough cells to score
Mc4r (melanocortin 4 receptor) | SID315467856 | 1.33 | 1.73 | 1.74 | enough cells to score
Ank3 (ankyrin 3, epithelial) | SID315465415 | -0.08 | 1.62 | 1.59 | enough cells to score
Snapc1 (small nuclear RNA activating complex, polypeptide 1) | SID315475167 | -0.02 | 1.58 | 1.52 | enough cells to score
Tet3 (tet methylcytosine dioxygenase 3) | SID315477453 | -0.87 | 1.37 | 1.79 | enough cells to score
Trak1 (trafficking protein, kinesin binding 1) | SID315472831 | – | 1.12 | 1.15 | fewer than 50 cells per well; well left out of scoring
Usp48 (ubiquitin specific peptidase 48) | SID315477192 | – | 1.33 | 1.04 | fewer than 50 cells per well; well left out of scoring
Map3k19 (mitogen-activated protein kinase kinase kinase 19) | SID315470075 | 1.11 | 1.67 | 1.51 | enough cells to score
Gdf15 (growth differentiation factor 15) | SID315470217 | -0.53 | 1.33 | 1.33 | enough cells to score
Zfp933 (zinc finger protein 933) | SID315479649 | 1.24 | 1.89 | 1.75 | enough cells to score
Ets2 (Ets proto-oncogene 2, transcription factor) | SID315470207 | 0.36 | 1.52 | 1.41 | enough cells to score
Nipsnap1 (nipsnap homolog 1) | SID315468178 | 1.86 | 2.16 | 1.67 | enough cells to score
Lrrtm1 (leucine rich repeat transmembrane neuronal 1) | SID315474945 | 0.65 | 1.67 | 1.76 | enough cells to score
Vmn1r46 (vomeronasal 1 receptor 46) | SID315476984 | -0.77 | 1.17 | 1.25 | enough cells to score
Arhgap22 (Rho GTPase activating protein 22) | SID315479413 | 0.51 | 1.59 | 1.67 | enough cells to score
Jph2 (junctophilin 2) | SID315471991 | 0.62 | 1.62 | 1.53 | enough cells to score
Pcdhgb2 (protocadherin gamma subfamily B, 2) | SID315475932 | -0.57 | 1.36 | 1.19 | enough cells to score
Vmn2r10 (vomeronasal 2, receptor 10) | SID315469972 | – | 1.14 | 1.2 | fewer than 50 cells per well; well left out of scoring
Tmt1a2 (thiol methyltransferase 1A2) | SID315481875 | – | 1.22 | 1.22 | fewer than 50 cells per well; well left out of scoring
Tmeff2 | SID315471481 | -0.14 | 1.35 | 1.25 | enough cells to score
Gulo (gulonolactone (L-) oxidase) | SID315480797 | -2.28 (active) | 1.95 | 1.23 | enough cells to score
Samd11 (sterile alpha motif domain containing 11) | SID315478854 | -0.62 | 1.56 | 1.66 | enough cells to score
Or1e22 (olfactory receptor family 1 subfamily E member 22) | SID315480632 | -2.25 (active) | 1.35 | 1.06 | enough cells to score
Tjp3 (tight junction protein 3) | SID315470588 | – | 1.42 | 1.35 | fewer than 50 cells per well; well left out of scoring
Pdgfd (platelet-derived growth factor, D polypeptide) | SID315474326 | – | 1.15 | 0.985 | fewer than 50 cells per well; well left out of scoring
Nek7 (NIMA (never in mitosis gene a)-related expressed kinase 7) | SID315471995 | 0.38 | 1.74 | 1.43 | enough cells to score
Prm2 (protamine 2) | SID315468708 | 0.24 | 1.41 | 1.24 | enough cells to score
Tas2r108 (taste receptor, type 2, member 108) | SID315471728 | -1.7 (active) | 1.23 | 1.38 | enough cells to score
Foxn1 (forkhead box N1) | SID315467190 | 1.2 | 1.61 | 1.51 | enough cells to score
Or1ak2 (olfactory receptor family 1 subfamily AK member 2) | SID315480276 | 1.46 | 1.83 | 1.62 | enough cells to score
Mterf1b (mitochondrial transcription termination factor 1b) | SID315477538 | -0.53 | 1.57 | 1.5 | enough cells to score
Nlrp4b (NLR family, pyrin domain containing 4B) | SID315477627 | 0.32 | 1.58 | 1.63 | enough cells to score
Alg6 (ALG6 alpha-1,3-glucosyltransferase) | SID315481312 | -0.2 | 1.59 | 1.58 | enough cells to score
Lasp1 (LIM and SH3 protein 1) | SID315467732 | -1.18 | 1.39 | 1.27 | enough cells to score
Acr (acrosin prepropeptide) | SID315465254 | -0.04 | 1.61 | 1.61 | enough cells to score
Creb3l2 (cAMP responsive element binding protein 3-like 2) | SID315477543 | -0.31 | 1.38 | 1.49 | enough cells to score
Iah1 (isoamyl acetate-hydrolyzing esterase 1 homolog) | SID315473198 | – | 1.25 | 1.19 | fewer than 50 cells per well; well left out of scoring
Or8b36 (olfactory receptor family 8 subfamily B member 36) | SID315480098 | 1.06 | 1.53 | 1.44 | enough cells to score
Or51a42 (olfactory receptor family 51 subfamily A member 42) | SID315480678 | 0.31 | 1.51 | 1.28 | enough cells to score
Rft1 (RFT1 homolog) | SID315481476 | 0.71 | 1.65 | 1.67 | enough cells to score
Elp1 (elongator complex protein 1) | SID315478770 | -0.99 | 2.59 | 1.25 | enough cells to score

Copied from the entries so far for reference:
target | PubChem SID | p65 translocation robust z-score | nuclear/cytoplasmic p65 ratio, rep 1 | nuclear/cytoplasmic p65 ratio, rep 2 | low cell count flag
Or9a4 (olfactory receptor family 9 subfamily A member 4) | SID315480066 | – | 1.26 | 0.915 | fewer than 50 cells per well; well left out of scoring
Prl3b1 (prolactin family 3, subfamily b, member 1) | SID315468558 | 0.4 | 1.57 | 1.92 | enough cells to score
Prkch (protein kinase C, eta) | SID315468543 | -0.67 | 1.55 | 1.32 | enough cells to score
Npc1l1 (NPC1 like intracellular cholesterol transporter 1) | SID315479357 | 0 | 1.78 | 1.47 | enough cells to score
Ngp (neutrophilic granule protein) | SID315468171 | -0.56 | 1.7 | 1.5 | enough cells to score
Cfi (complement component factor i) | SID315465943 | -1.24 | 1.16 | 1.35 | enough cells to score
Hoxd8 (homeobox D8) | SID315467281 | -0.58 | 1.33 | 1.32 | enough cells to score
Fut9 (fucosyltransferase 9) | SID315466766 | 0.41 | 1.64 | 1.53 | enough cells to score
